{"source": "PubChem BioAssay AID1259405 | NCATS – 2018", "purpose": "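Mouse-designed siRNAs used to find CHO productivity engineering targets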 (primary screen)", "cells": "Chinese hamster CHO-K1 ovary cells with stable secreted eGFP expression", "reagent": "single siRNA against mouse genes, 0.8 pmol siRNA per well (2 µl of 400 nM stock)", "time to read-out": "3 days", "measured": "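Percent of the per-plate non-targeting control median for intracellular GFP per well by laser scanning cytometry and for cell viability by ATP luminescence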", "scale": "GFP, % of control: higher = more GFP per well, higher productivity; viability (ATP), % of control: higher = more viable cells (more ATP)", "rule for the call": "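Called active when intracellular GFP, relative to negative control, is at or above 120%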", "note": "The whole screen tested about 50,000 reagents; below is a random part of them. About 4,000 of them (8%) count as active. 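Mouse siRNA library applied to hamster cells; one well for each siRNA.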 The numbers tell different reagents against one gene apart. No sequences are given here."}
{"Gene": "Tmprss11c", "reagent no.": 1, "GFP, % of control": 103, "viability (ATP), % of control": 99.3, "outcome": "inactive"}
{"Gene": "Tmprss11c", "reagent no.": 2, "GFP, % of control": 37.2, "viability (ATP), % of control": 51.4, "outcome": "inactive"}
{"Gene": "Tmprss11c", "reagent no.": 3, "GFP, % of control": 82.2, "viability (ATP), % of control": 86, "outcome": "inactive"}
{"Gene": "Cdhr4", "reagent no.": 1, "GFP, % of control": 77.8, "viability (ATP), % of control": 104, "outcome": "inactive"}
{"Gene": "Cdhr4", "reagent no.": 2, "GFP, % of control": 39.3, "viability (ATP), % of control": 49.6, "outcome": "inactive"}
{"Gene": "Cdhr4", "reagent no.": 3, "GFP, % of control": 51, "viability (ATP), % of control": 56, "outcome": "inactive"}
{"Gene": "Vmn1r-ps8", "reagent no.": 1, "GFP, % of control": 88.2, "viability (ATP), % of control": 61.5, "outcome": "inactive"}
{"Gene": "Vmn1r-ps8", "reagent no.": 2, "GFP, % of control": 69.2, "viability (ATP), % of control": 62.7, "outcome": "inactive"}
{"Gene": "Vmn1r-ps8", "reagent no.": 3, "GFP, % of control": 88, "viability (ATP), % of control": 101, "outcome": "inactive"}
{"Gene": "Hoxa7", "reagent no.": 1, "GFP, % of control": 126, "viability (ATP), % of control": 87.8, "outcome": "active"}
{"Gene": "Hoxa7", "reagent no.": 2, "GFP, % of control": 38.3, "viability (ATP), % of control": 47, "outcome": "inactive"}
{"Gene": "Hoxa7", "reagent no.": 3, "GFP, % of control": 80.8, "viability (ATP), % of control": 95.6, "outcome": "inactive"}
{"Gene": "Dmxl2", "reagent no.": 1, "GFP, % of control": 63.9, "viability (ATP), % of control": 76.9, "outcome": "inactive"}
{"Gene": "Dmxl2", "reagent no.": 2, "GFP, % of control": 24.8, "viability (ATP), % of control": 19.2, "outcome": "inactive"}
{"Gene": "Dmxl2", "reagent no.": 3, "GFP, % of control": 73.6, "viability (ATP), % of control": 82, "outcome": "inactive"}
{"Gene": "Or10ag54", "reagent no.": 1, "GFP, % of control": 160, "viability (ATP), % of control": 59.3, "outcome": "active"}
{"Gene": "Or10ag54", "reagent no.": 2, "GFP, % of control": 89.9, "viability (ATP), % of control": 89.6, "outcome": "inactive"}
{"Gene": "Or10ag54", "reagent no.": 3, "GFP, % of control": 127, "viability (ATP), % of control": 80.7, "outcome": "active"}
{"Gene": "Or10ag54", "reagent no.": 4, "GFP, % of control": 127, "viability (ATP), % of control": 80.7, "outcome": "active"}
{"Gene": "Or10ag54", "reagent no.": 5, "GFP, % of control": 103, "viability (ATP), % of control": 88.7, "outcome": "inactive"}
{"Gene": "Or10ag54", "reagent no.": 6, "GFP, % of control": 96.4, "viability (ATP), % of control": 95.1, "outcome": "inactive"}
{"Gene": "Celf6", "reagent no.": 1, "GFP, % of control": 80, "viability (ATP), % of control": 84.9, "outcome": "inactive"}
{"Gene": "Celf6", "reagent no.": 2, "GFP, % of control": 117, "viability (ATP), % of control": 92, "outcome": "inactive"}
{"Gene": "Celf6", "reagent no.": 3, "GFP, % of control": 162, "viability (ATP), % of control": 120, "outcome": "active"}
{"Gene": "Cstdc1", "reagent no.": 1, "GFP, % of control": 63.7, "viability (ATP), % of control": 50.2, "outcome": "inactive"}
{"Gene": "Cstdc1", "reagent no.": 2, "GFP, % of control": 98, "viability (ATP), % of control": 78.2, "outcome": "inactive"}
{"Gene": "Cstdc1", "reagent no.": 3, "GFP, % of control": 82.5, "viability (ATP), % of control": 100, "outcome": "inactive"}
{"Gene": "Krt84", "reagent no.": 1, "GFP, % of control": 48.1, "viability (ATP), % of control": 76.5, "outcome": "inactive"}
{"Gene": "Krt84", "reagent no.": 2, "GFP, % of control": 91, "viability (ATP), % of control": 55.2, "outcome": "inactive"}
{"Gene": "Larp1b", "reagent no.": 1, "GFP, % of control": 83.8, "viability (ATP), % of control": 63.5, "outcome": "inactive"}
{"Gene": "Larp1b", "reagent no.": 2, "GFP, % of control": 114, "viability (ATP), % of control": 36.3, "outcome": "inactive"}
{"Gene": "Larp1b", "reagent no.": 3, "GFP, % of control": 131, "viability (ATP), % of control": 71.3, "outcome": "active"}
{"Gene": "Adamtsl2", "reagent no.": 1, "GFP, % of control": 121, "viability (ATP), % of control": 98.7, "outcome": "active"}
{"Gene": "Adamtsl2", "reagent no.": 2, "GFP, % of control": 104, "viability (ATP), % of control": 87.8, "outcome": "inactive"}
{"Gene": "Ebp", "reagent no.": 1, "GFP, % of control": 93.7, "viability (ATP), % of control": 103, "outcome": "inactive"}
{"Gene": "Ebp", "reagent no.": 2, "GFP, % of control": 92.7, "viability (ATP), % of control": 102, "outcome": "inactive"}
{"Gene": "Ebp", "reagent no.": 3, "GFP, % of control": 43.8, "viability (ATP), % of control": 61.5, "outcome": "inactive"}
{"Gene": "B3galt1", "reagent no.": 1, "GFP, % of control": 95.4, "viability (ATP), % of control": 98.7, "outcome": "inactive"}
{"Gene": "B3galt1", "reagent no.": 2, "GFP, % of control": 109, "viability (ATP), % of control": 130, "outcome": "inactive"}
{"Gene": "B3galt1", "reagent no.": 3, "GFP, % of control": 123, "viability (ATP), % of control": 138, "outcome": "active"}
